# From PubChem BioAssay AID1259415 (National Center for Advancing Translational Sciences (NCATS), 2018)
# Out of some 410,000 compounds screened, about 18,000 (4.4%) were called active. Inconclusive means that the source gave no clear call. Such entries were picked first, then a sample of the others. Rule as the data show it: active = activity change below about -60%; inconclusive = no clear call, values can overlap the other calls; inactive = above about -39%.
# Test: qHTS Assay for inhibitors of the human cytomegalovirus (HCMV)
# Conditions: HFF cells, HCMV-luciferase reporter, 72 h; at 57.5 µM; stronger effect = lower value
# Method in brief: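 Screen run at 2 compound doses on HFFs infected with reporter HCMV, MOI 1 PFU/cell. Luciferase activity from cell lysates at 72 h post infection gave inhibition relative to buffer-only and Salinomycin wells.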
# % is scaled to controls: 0 for no effect and ±100 for the full control effect.
row,SMILES,"activity change, negative = inhibition"
1,Cc1ccc(S(=O)(=O)N(CC(O)CN2CCOCC2)c2cc(Cl)ccc2Cl)cc1 (stereo not drawn),inconclusive: -57.2%
2,CCN(CC)C(=O)Cc1c(OC)ccc2cc(Br)ccc12,inconclusive: -54.2%
3,Cc1c(C)n2c(SCC(=O)N3CC(C)OC(C)C3)nnc2[nH]c1=O (stereo not drawn),inactive: -16.1%
4,Cc1ncc(CC(=O)n2cc(C(=O)c3cc(Cl)ccc3O)cn2)s1,inconclusive: -58.6%
5,Cc1ccccc1NC(=O)CN1C(=O)N/C(=C\c2cccn2-c2cccc(C(=O)O)c2)C1=O,inconclusive: -44.8%
6,CN(C)S(=O)(=O)c1cccc(NC(=O)COC(=O)c2cn(-c3ccccc3)nc2-c2ccccc2)c1,inconclusive: -46.3%
7,COc1ccc(C(=O)N/N=C/c2cc(Br)ccc2O)cc1OC,active: -96.7%
8,COc1ccccc1-c1cccc(-c2nc(C(=O)Nc3nccs3)cc3c2[C@@H](CCO)N(C(C)=O)C3)c1,inconclusive: -56.7%
9,COCCCN1C(=O)C(CC(=O)NCc2ccco2)CC(C(=O)N(C(C)C)C(C)C)=C1C (stereo not drawn),inactive: -9.51%
10,CN=C1S/C(=C\c2cccn2-c2cccc(Br)c2)C(=O)N1C,active: -65.2%
11,CC1(C)Cc2c(cnn2-c2ccccc2)C(NC(=O)C2(C(N)=O)CC2)C1 (stereo not drawn),inconclusive: -47.7%
12,COc1ccc2oc(C(=O)c3ccccc3)c(NC(=O)CN3CCN(C)CC3)c2c1,inconclusive: -48.8%
13,COc1ccc(-c2nnn(CC(=O)N(Cc3cccs3)C(C)C(=O)NC3CCCC3)n2)cc1OC (stereo not drawn),inactive: 16.5%
14,Cc1cc2c3c([nH]c2cc1S(=O)(=O)N1CCC2(CC1)OCCO2)CC(C)(C)CC3=O,inconclusive: -58.7%
15,CCCN1CCN(CCCNC(=S)Nc2ccc3nc(N4CCN(CC)CC4)cc(C)c3c2)CC1,inconclusive: -45.1%
16,CC(C)NC(=O)N1c2ccccc2Sc2ccccc21,inconclusive: -50.6%
17,CN(C)c1ccc(N2C(=O)CC(Sc3ccccc3C(=O)O)C2=O)cc1 (stereo not drawn),inconclusive: -56.8%
18,Cc1cccc(NC(=S)NNc2ncc(C(F)(F)F)cc2Cl)c1,inconclusive: -46.9%
19,COc1cc(CC(=O)N(c2ccccc2)c2nc(C)cs2)cc(OC)c1OC,inactive: -4.4%
20,COc1ccc(Cl)cc1NC(=O)c1cccc(NC(=O)CCC(=O)O)c1,inconclusive: -57.3%
21,CCc1cccc(C)c1NC(=O)Cn1cc2c(n1)CCCC2,inactive: -17.7%
22,CCOC(=O)c1ccc(S(=O)(=O)N2CCN(C(=O)CSc3nc4ccccc4o3)CC2)cc1,inconclusive: -40.6%
23,COc1ccc(CN2CCCC(CO)(Cc3cccc(Cl)c3)C2)cc1OC (stereo not drawn),inactive: 43.5%

# Rewritten with bars between the fields: entries from further up.
row | SMILES | activity change, negative = inhibition
2 | CCN(CC)C(=O)Cc1c(OC)ccc2cc(Br)ccc12 | inconclusive: -54.2%
3 | Cc1c(C)n2c(SCC(=O)N3CC(C)OC(C)C3)nnc2[nH]c1=O (stereo not drawn) | inactive: -16.1%
4 | Cc1ncc(CC(=O)n2cc(C(=O)c3cc(Cl)ccc3O)cn2)s1 | inconclusive: -58.6%
5 | Cc1ccccc1NC(=O)CN1C(=O)N/C(=C\c2cccn2-c2cccc(C(=O)O)c2)C1=O | inconclusive: -44.8%
6 | CN(C)S(=O)(=O)c1cccc(NC(=O)COC(=O)c2cn(-c3ccccc3)nc2-c2ccccc2)c1 | inconclusive: -46.3%
7 | COc1ccc(C(=O)N/N=C/c2cc(Br)ccc2O)cc1OC | active: -96.7%
